From paper PMC11962866 (RSC Advances, 2025) come the findings set out here.

By IC50 is commonly meant the midpoint of a concentration-inhibition curve.

The test system of this test is MRC-5 cells. The test is described as follows: Cytotoxicity assay on normal cells. In kind it is cell-based. To be noted: Homo sapiens, MRC5, 72 h, read-out: IC50 on MRC-5 cell lines.

Consider `Clc1ccc(COC(Cn2ccnc2)c2ccc(Cl)cc2Cl)c(Cl)c1` (stereo not shown) [Miconazole, miconazole], for which the IC50 was more than 100 µM.
